Laboratory results: PMC6412040
These are yes or no findings as the source states them, for the method shown.

Target: USP37^wt (isolated catalytic domain of USP37 from Danio rerio, residues 312–927) (Danio rerio) (UniProt E7F6T8)
Assay: SEC; 1 mL of ~2 mg/mL USP37^wt on Superdex S200 in 25 mM HEPES pH 8, 150 mM NaCl, 5 mM DTT; effective molecular weight from protein standards; both purified

B1: USP37^wt (isolated catalytic domain of USP37 from Danio rerio, residues 312–927) (enzyme, UniProt E7F6T8 312-927)
chain: SVLAQPQPPLQGFSNLGNTCYMNAILQSLFSLPSFSNDLLKQGIPWKRVPINALLRRFAHLLAKKDISPPEVKKDLLRRVKNAISSTAERFSGYMQNDAHEFLSQCLDQLKEDVEKINKSWKNEPSAWDEPQSTRLADEVDTSRIYTCPVTVNMEFEVQHTITCKSCGEVVLKREQFNDLSIDLPRRRKTLPMRSIQDSLDLFFRMEEIEYSCEKCSGKAATVSHKFSRLPRVLILHLKRYSYNTQLSLNSKLGQQVLIPKYLTLLSHCTDATRSPLSLGWSAQNALSRTLKISQSVNSSTLRRASQRPESSGSVLCDSDSDEELVRKVARKHHPDDDRADELQQHHPHAAVEQSEFNGINDEEMLAAVLEMSRHDTSLCAGPDEEPSSSPDTGFGDADAHDLTQHLELLDAEKQPTDALESLDLTMDENKENQTPDGLQGELDWVQQYSLEQEREEQELQQALAQSLQEQEAREMREDDDLKRATELSLQEFNNSLPELLCSDEDSGNEDGLDMEYSEAEAEELKKNAETGELPNSFRLISVVSHIGSSSSSGHYISDVYDMKKQSWLTYNDLDVSRTQESTVQRDRDRSGYIFFYMHKDVFEELSELEKAGVNT
For B1, the binding was “no binding (tested: 1 mL of ~2 mg/mL injected)”.
